According to PMC6375917 (2019):
Residue numbers refer to the chain shown, from its start. No constants are given. Whether binding was seen depends on the method and setting. In cells and extracts the contact can be indirect. Some binding calls cover weakened binding; strength is not graded here. Tags and fused reporters may be left off the sequences shown.

B1: Tim23 (protein, UniProt P32897 1-222)
chain: MSWLFGDKTPTDDANAAVGGQDTTKPKELSLKQSLGFEPNINNIISGPGGMHVDTARLHPLAGLDKGVEYLDLEEEQLSSLEGSQGLIPSRGWTDDLCYGTGAVYLLGLGIGGFSGMMQGLQNIPPNSPGKLQLNTVLNHITKRGPFLGNNAGILALSYNIINSTIDALRGKHDTAGSIGAGALTGALFKSSKGLKPMGYSSAMVAAACAVWCSVKKRLLEK
B2: Tim17 (protein, UniProt P39515 1-158)
chain: MSADHSRDPCPIVILNDFGGAFAMGAIGGVVWHGIKGFRNSPLGERGSGAMSAIKARAPVLGGNFGVWGGLFSTFDCAVKAVRKREDPWNAIIAGFFTGGALAVRGGWRHTRNSSITCACLLGVIEGVGLMFQRYAAWQAKPMAPPLPEAPSSQPLQA

Experiments:
Test in all cases: pull-down; mitochondria from cells expressing His-tagged Tim50 versions solubilized with 1% digitonin, incubated with Ni-NTA agarose beads at 4 °C, eluted with Laemmli buffer with 300 mM imidazole; immunoblot with Tim50, Tim17 and Tim23 antibodies
[1] = biological target: T1, His-tagged Tim50 A221D/D278V (yeast) (UniProt Q02776)
T1 sequence: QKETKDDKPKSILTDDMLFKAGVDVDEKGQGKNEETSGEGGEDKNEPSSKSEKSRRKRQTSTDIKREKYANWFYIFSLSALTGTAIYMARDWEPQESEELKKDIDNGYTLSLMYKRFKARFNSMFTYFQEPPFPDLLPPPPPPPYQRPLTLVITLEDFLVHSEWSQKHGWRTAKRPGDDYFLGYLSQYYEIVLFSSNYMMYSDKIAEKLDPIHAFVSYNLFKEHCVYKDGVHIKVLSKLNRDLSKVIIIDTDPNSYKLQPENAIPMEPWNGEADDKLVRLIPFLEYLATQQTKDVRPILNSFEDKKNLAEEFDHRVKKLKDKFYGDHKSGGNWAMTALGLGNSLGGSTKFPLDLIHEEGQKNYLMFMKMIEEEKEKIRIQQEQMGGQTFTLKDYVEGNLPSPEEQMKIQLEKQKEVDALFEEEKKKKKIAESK

[2] = biological target: T2, His-tagged Tim50 D337V (yeast) (UniProt Q02776)
T2 sequence: T1 sequence with D178A, V235D, D294V

[3] = biological target: T3, His-tagged Tim50 N283Y/D293N (yeast) (UniProt Q02776)
T3 sequence: T1 sequence with D178A, V235D, N240Y, D250N

[4] = biological target: T4, His-tagged Tim50 R339S (yeast) (UniProt Q02776)
T4 sequence: T1 sequence with D178A, V235D, R296S

[5] = biological target: T5, His-tagged Tim50 mutant #1 (L202V,F237L,Y261S,V274E,Y299S) (yeast) (UniProt Q02776)
T5 sequence: T1 sequence with L159V, D178A, F194L, Y218S, V231E, V235D, Y256S

| Binder | binding [1] | binding [2] | binding [3] | binding [4] | binding [5] |
| --- | --- | --- | --- | --- | --- |
| B1 | no binding | binds | binds | binds | binds |
| B2 |  |  | binds |  | binds |
